Measured values taken from PMC12045374.
These are yes or no findings as the source states them, for the method shown. Binding seen in cells or lysates may run through a third protein. Some binding calls cover weakened binding; strength is not graded here.

Amino acid sequences for entries named in this document (tags omitted).
UniProt P18615: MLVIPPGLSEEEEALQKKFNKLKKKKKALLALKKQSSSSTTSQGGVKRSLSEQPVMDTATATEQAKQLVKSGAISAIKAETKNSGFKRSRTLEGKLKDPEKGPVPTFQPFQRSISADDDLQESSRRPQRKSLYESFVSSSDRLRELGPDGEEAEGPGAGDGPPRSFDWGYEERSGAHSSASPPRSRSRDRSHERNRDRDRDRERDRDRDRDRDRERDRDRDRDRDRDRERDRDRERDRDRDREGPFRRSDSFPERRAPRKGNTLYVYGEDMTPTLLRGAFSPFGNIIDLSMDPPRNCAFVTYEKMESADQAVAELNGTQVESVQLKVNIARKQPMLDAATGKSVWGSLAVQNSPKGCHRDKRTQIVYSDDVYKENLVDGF
UniProt Q12824: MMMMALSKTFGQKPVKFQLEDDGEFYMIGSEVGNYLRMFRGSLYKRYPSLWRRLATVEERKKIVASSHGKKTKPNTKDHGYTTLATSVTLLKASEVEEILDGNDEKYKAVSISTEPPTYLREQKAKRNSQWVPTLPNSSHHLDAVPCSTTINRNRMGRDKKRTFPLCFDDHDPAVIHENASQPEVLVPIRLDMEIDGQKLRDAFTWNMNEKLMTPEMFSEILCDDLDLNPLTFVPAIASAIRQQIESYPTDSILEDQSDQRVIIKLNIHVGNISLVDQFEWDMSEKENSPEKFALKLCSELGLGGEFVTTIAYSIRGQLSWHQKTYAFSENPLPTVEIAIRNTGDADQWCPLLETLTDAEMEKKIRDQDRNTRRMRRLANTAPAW

What was measured:
[1] = target: Negative Elongation Factor E (NELFE) (human (endogenous in Hep3B, Huh1, HLE and HCC patient tissue)) (UniProt P18615); assay: co-IP; endogenous SMARCB1 and NELFE, both directions, three HCC cell lines, immunoblot
[2] = target: eNELFE-eGFP (endogenous NELFE tagged with eGFP at the C terminus by CRISPR/Cas9 HDR knock-in) (human (endogenous locus in HCC cell lines)) (UniProt P18615); assay: co-IP; SMARCB1 and NELFE, both directions, in WT eNE-eGFP and eNEΔLCS1-eGFP cells, immunoblot
[3] = target: eNELFE-eGFP (endogenous NELFE tagged with eGFP at the C terminus by CRISPR/Cas9 HDR knock-in) (human (endogenous locus in HCC cell lines)) (UniProt P18615); assay: proximity ligation; in situ in eNE-eGFP knock-in HCC cells (HLE in Figure 6I), WT and ΔLCS1 mutant; SMARCB1 and GFP antibodies; foci/nuclei counted
[4] = target: Negative Elongation Factor E (NELFE) (human (endogenous in Hep3B, Huh1, HLE and HCC patient tissue)) (UniProt P18615); assay: proximity ligation; HCC patient tissue microarrays (FFPE); SMARCB1 and NELFE antibodies; foci/nuclei counted, NELFE-High against NELFE-Low subgroup

Measured: binding

SMARCB1 (from UniProt Q12824 1-385)
binds: all assays above
